The source of these data is the supplement of paper PMC12889115.

The other results are listed elsewhere or left out. Values are raw readings; no control value is given beside them.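 Primary screen: polymyxin B was added at a level permeabilizing Salmonella outer membranes while sparing inner membranes. DMSO wells, both with and without polymyxin B, established maximum growth. Plate-to-plate variation meant each plate was ranked on its own, and the lowest-OD600 compounds were selected as hits.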

The subject of the experiment is Salmonella enterica serovar Typhimurium SL1344. The experiment can be described thus: bacterial growth OD600 after 18 h with compound and polymyxin B; higher = more bacterial growth (less inhibition). As to conditions: 50 µM, Mueller-Hinton broth.

As for `CC(C)N(Cc1cn(Cc2ccccc2)nc1-c1cc2ccccc2o1)CC1CCC(=O)N1` (stereo unspecified), the “bacterial growth OD600” value (polymyxin B 1 µg/mL) was 0.52. For the molecule `CCOc1ccc2nc(N3CCCN(Cc4c(C)nn(CC)c4C)CC3)nc(C)c2c1`, where the note is “polymyxin B 0.75 µg/mL”, the “bacterial growth OD600” value worked out at 0.761. The same measure, in the same setting: then `CC(C)CN1CCC(C2CCN(Cc3cccn3-c3nccs3)C2)CC1` (stereo unspecified), with 0.868. Turning to `Cc1c[nH]c(CN(C)C(=O)c2ccc(OC3CCN(S(C)(=O)=O)CC3)c(Cl)c2)n1`, the “bacterial growth OD600” value (polymyxin B 1 µg/mL) was determined as 0.955. For the molecule `CC#CCN1C(=O)NC(CCc2ccccc2)(C2CCN(C(=O)C#CC)CC2)C1=O` (stereo unspecified), for the setting “polymyxin B 0.75 µg/mL”, the “bacterial growth OD600” value came to 0.873. As for `Clc1ccccc1Cc1noc(CN2CCN(c3cnccn3)CC2)n1`, the “bacterial growth OD600” value (polymyxin B 1 µg/mL) worked out at 0.991. Regarding `CCn1ccnc1CN1CCCC(N2CCN(c3ccccc3C)CC2)C1` (stereo unspecified), the “bacterial growth OD600” value (polymyxin B 1 µg/mL) came out at 0.916.

Turning to `CN(Cc1cnn(C)c1)C(=O)c1cc(COc2cccc(C(F)(F)F)c2)[nH]n1`, the “bacterial growth OD600” value (polymyxin B 0.75 µg/mL) was found to be 0.773. Turning to `CCCN1CCCC1C(=O)Nc1cccc(-n2cccn2)c1` (stereo unspecified), the “bacterial growth OD600” value (polymyxin B 1 µg/mL) amounted to 0.932. On to `CN(CCc1cn[nH]c1)c1nc2nonc2nc1N1CCCC1`, for which the “bacterial growth OD600” value (polymyxin B 1 µg/mL) is 1.04. Same read-out and setting: the value for `CCC(COC)NC(=O)c1cc(COc2cccc(OC)c2)on1` (stereo unspecified) was 1.15; that for `COc1cccc(OCc2nc(C(=O)N3CC[C@@H]4CCCC[C@H]4C3)co2)c1` was 0.487. `CN(C)CCN(CC1CCCN(Cc2ccccc2F)C1)C(=O)C1(C(N)=O)CC1` (stereo unspecified): where the note is “polymyxin B 0.75 µg/mL”, the “bacterial growth OD600” value turned out to be 0.835. Consider `CCO[C@H]1[C@H](NC(=O)c2cccnc2)c2ccccc2C12CCN(C(=O)c1cc(C(C)C)on1)CC2`, for which the “bacterial growth OD600” value (polymyxin B 0.75 µg/mL) was determined as 0.811. Regarding `O=C(NCc1cccnc1)c1coc(COc2cccc(C(F)(F)F)c2)n1`, the “bacterial growth OD600” value (polymyxin B 1 µg/mL) was determined as 0.852.

In the case of `O=C(CCc1nnc(-c2ccc3c(c2)OCO3)o1)NCCCc1ccccc1`, where the note is “polymyxin B 1 µg/mL”, the “bacterial growth OD600” value was 0.98.

Turning to `CN(Cc1cnccn1)C(=O)CC1C(=O)NCCN1CCCc1ccccc1` (stereo unspecified), the “bacterial growth OD600” value (polymyxin B 1 µg/mL) stood at 0.944. For the molecule `COc1ccc(CN2CCNC(=O)C2CC(=O)N2CCN(c3ccccc3)CC2)c(C)c1C` (stereo unspecified), the “bacterial growth OD600” value (polymyxin B 1 µg/mL) was 0.805.

`COc1c(C)cc(C(=O)C2CCCN(Cc3c(C)nc4sccn34)C2)cc1C` (stereo unspecified): where the note is “polymyxin B 1 µg/mL”, the “bacterial growth OD600” value worked out at 0.692. `Cc1nc[nH]c1CN1CCCC(CCc2c(F)cccc2F)C1` (stereo unspecified): the “bacterial growth OD600” value (polymyxin B 0.75 µg/mL) came to 0.867. Take `CCN(Cc1nccn1C)C(=O)c1ccc(N(C)CC2CCCCN2C)nc1` (stereo unspecified): for the setting “polymyxin B 0.75 µg/mL”, the “bacterial growth OD600” value worked out at 0.849.
